Laboratory results published in US20230121197A1, “ANTIBODIES SPECIFICALLY BINDING THE CARBOXYMETHYLATED CATALYTIC SUBUNIT OF PROTEIN PHOSPHATASE 2A” (Medizinische Universität Wien, priority 2020, published 2023).
Some entries share one result that the patent states for a list of compounds.

Legend:
[1] = biological target: T1, non-carboxymethylated PP2Ac (ac-[…]-OH) (Homo sapiens, UniProt P67775); assay: Surface plasmon resonance (Biacore T200), non-carboxymethylated PP2Ac peptide; settings: could not be determined; only very weak binding signals at highest analyte concentration (5000 nM)
T1 construct: The following 11-mer peptides corresponding to the carboxymethylated or non-methylated carboxy-terminus of PP2A and PP4 catalytic subunits were used as antigens
Experimental: The differential affinity of anti-carboxymethylated PP2Ac antibodies, 7C10-C5 and 2A10, to carboxymethylated PP2A catalytic subunit versus noncarboxymethylated PP2A catalytic subunit was determined by surface plasmon resonance (SPR) on a Biacore T200 (GE Healthcare) at the Core Facility Biomolecular & Cellular Analysis (University of Natural Resources and Life Sciences Vienna BOKU). The affinity of 7C10-C5 for carboxymethylated and noncarboxymethylated catalytic subunit of PP4 (PP4c), a PP2A-related phosphatase, was also determined. […] The KD of the binding of 7C10-C5 (or 2A10) to non-carboxymethylated PP2Ac or PP4c could not be determined because at the highest analyte sample concentration (5000 nM) only very weak binding signals were detected indicating KD values of at least >5000 nM or higher. […]
SPR experiments were performed with the BiacoreT200 instrument (Cytiva). […] The sensorgrams obtained were analyzed with BiacoreT200 Evaluation Software (version 3.1). […]

[2] = biological target: T2, non-carboxymethylated PP4c (ac-[…]-OH) (Homo sapiens, UniProt P60510); assay: Surface plasmon resonance (Biacore T200), non-carboxymethylated PP4c peptide; settings: could not be determined; only very weak binding signals at highest analyte concentration (5000 nM)
T2 construct: The following 11-mer peptides corresponding to the carboxymethylated or non-methylated carboxy-terminus of PP2A and PP4 catalytic subunits were used as antigens

B1: 7C10-C5: α-carboxymethylation specific mouse monoclonal IgG1 antibody from single clone hybridoma 7C10-C5 (DSM ACC3350) (antibody)
heavy: MYRMQLLSCIALSLALVTNSDVQLQESGPGLVKPSQSLSLTCSVTGYSITSGYYWNWIRQFPGNKLEWMGYISYDGSNNYNPSLKNRISITRDTSKNQFFLKLNSVTTEDTATYYCAGRFAYWGQGTLVTVSAAKTTAPSVYPLAPVCGDTTGSSVTLGCLVKGYFPEPVTLTWNSGSLSSGVHTFPAVLQSDLYTLSSSVTVTSSTWPSQSITCNVAHPASSTKVDKKIEPRGPTIKPCPPCKCPAPNLLGGPSVFIFPPKIKDVLMISLSPIVTCVVVDVSEDDPDVQISWFVNNVEVHTAQTQTHREDYNSTLRVVSALPIQHQDWMSGKEFKCKVNNKDLPAPIERTISKPKGSVRAPQVYVLPPPEEEMTKKQVTLTCMVTDFMPEDIYVEWTNNGKTELNYKNTEPVLDSDGSYFMYSKLRVEKKNWVERNSYSCSVVHEGLHNHHTTKSFSRTPGK
light: MDMRVPAQLLGLLLLWLSGARCDVLMTQTPLSLPVSLGDQASISCRSSQSIVHSNGNTYLEWYLQKPGQSPKLLIYKVSNRFSGVPDRFSGSGSGTDFTLKINRVEAEDLGVYYCFQGSHVPWTFGGGTKLEIKADAAPTVSIFPPSSEQLTSGGASVVCFLNNFYPKDINVKWKIDGSERQNGVLNSWTDQDSKDSTYSMSSTLTLTKDEYERHNSYTCEATHKTSTSPIVKSFNRNEC
modifications: Amino acid sequence of the recombinant 7C10-C5 heavy chain; Amino acid sequence of the recombinant 7C10-C5 light chain
With B1 the Kd [1] was greater than 5 µM and the Kd [2] was greater than 5 µM.
